# Laboratory results reported in PubChem BioAssay (EPA / NIEHS).
# The chains behind the UniProt entries cited, without tags or fusion partners. Where a name states a change or a piece, a line headed by the entry shows the natural chain unless it says otherwise.
# UniProt O97775: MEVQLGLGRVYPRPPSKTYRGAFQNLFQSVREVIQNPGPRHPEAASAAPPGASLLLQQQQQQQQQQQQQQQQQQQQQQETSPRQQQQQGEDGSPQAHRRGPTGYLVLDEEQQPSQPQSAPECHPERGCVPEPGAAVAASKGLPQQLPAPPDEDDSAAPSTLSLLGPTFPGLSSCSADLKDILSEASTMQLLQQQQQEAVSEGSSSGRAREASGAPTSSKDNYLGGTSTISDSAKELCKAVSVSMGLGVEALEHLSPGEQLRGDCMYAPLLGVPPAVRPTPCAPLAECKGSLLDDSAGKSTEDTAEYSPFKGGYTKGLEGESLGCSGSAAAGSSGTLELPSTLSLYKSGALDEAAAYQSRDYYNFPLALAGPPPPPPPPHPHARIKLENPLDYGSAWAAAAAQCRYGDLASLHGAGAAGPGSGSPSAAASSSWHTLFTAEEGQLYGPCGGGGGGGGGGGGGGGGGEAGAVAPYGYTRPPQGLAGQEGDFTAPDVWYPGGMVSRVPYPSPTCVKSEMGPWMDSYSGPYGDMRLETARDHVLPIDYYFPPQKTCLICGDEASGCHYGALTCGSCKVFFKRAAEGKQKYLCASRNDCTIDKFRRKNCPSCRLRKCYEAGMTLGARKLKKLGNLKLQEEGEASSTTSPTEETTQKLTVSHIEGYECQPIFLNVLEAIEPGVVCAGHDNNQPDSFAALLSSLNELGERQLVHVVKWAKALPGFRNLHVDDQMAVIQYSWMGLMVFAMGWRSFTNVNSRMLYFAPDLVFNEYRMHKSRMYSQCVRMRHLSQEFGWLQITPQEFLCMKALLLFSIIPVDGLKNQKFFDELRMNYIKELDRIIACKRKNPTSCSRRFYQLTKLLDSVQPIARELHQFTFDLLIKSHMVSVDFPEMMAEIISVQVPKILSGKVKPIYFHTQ
# UniProt P03372, whole entry, looked up: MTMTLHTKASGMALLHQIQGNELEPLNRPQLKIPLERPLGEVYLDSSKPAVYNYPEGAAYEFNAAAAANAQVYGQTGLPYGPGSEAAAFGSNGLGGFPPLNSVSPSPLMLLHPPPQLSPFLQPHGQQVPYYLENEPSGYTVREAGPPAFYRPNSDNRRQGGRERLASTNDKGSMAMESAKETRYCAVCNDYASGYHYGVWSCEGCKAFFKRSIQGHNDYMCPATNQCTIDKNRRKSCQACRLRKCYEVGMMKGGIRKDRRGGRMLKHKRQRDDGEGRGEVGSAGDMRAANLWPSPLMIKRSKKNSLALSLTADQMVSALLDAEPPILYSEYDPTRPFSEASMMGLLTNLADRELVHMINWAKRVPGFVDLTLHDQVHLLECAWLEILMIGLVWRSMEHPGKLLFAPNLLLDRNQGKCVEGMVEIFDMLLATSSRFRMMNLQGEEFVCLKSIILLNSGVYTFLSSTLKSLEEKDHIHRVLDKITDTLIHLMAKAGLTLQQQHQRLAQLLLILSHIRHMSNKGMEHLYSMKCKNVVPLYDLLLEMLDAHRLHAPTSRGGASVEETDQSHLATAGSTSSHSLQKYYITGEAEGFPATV
# UniProt P35813: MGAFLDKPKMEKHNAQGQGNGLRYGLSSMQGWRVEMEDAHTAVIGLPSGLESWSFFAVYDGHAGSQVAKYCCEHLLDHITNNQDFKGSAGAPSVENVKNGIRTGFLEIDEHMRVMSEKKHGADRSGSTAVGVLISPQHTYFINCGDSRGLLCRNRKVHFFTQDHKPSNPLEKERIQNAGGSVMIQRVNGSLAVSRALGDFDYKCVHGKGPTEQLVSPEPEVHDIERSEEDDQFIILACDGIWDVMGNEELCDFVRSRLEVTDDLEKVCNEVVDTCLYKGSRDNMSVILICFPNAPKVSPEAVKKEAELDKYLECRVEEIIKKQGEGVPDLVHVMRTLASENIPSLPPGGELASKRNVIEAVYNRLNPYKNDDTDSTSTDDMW
# UniProt Q2NNR5: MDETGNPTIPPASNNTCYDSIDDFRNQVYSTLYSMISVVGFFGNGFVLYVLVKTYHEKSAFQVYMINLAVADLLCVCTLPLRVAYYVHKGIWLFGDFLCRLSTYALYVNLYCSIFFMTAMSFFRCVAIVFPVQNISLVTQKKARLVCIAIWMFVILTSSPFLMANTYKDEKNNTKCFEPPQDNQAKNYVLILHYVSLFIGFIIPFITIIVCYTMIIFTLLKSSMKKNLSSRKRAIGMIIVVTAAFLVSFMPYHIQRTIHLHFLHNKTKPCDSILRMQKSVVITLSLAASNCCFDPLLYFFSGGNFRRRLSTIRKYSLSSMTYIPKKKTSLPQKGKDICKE
# UniProt P19327, whole entry, looked up: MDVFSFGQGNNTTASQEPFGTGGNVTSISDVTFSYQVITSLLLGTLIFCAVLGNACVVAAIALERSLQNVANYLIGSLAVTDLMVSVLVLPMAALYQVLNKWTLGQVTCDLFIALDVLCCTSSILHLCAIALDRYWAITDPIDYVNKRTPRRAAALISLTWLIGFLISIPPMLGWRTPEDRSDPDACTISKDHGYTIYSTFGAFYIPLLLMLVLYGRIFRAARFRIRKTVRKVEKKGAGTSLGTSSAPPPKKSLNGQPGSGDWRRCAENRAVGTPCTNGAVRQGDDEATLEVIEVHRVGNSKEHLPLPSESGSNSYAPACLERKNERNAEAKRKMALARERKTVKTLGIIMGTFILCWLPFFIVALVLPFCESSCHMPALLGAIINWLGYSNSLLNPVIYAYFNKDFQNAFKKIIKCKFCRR
# UniProt P35916, whole entry, looked up: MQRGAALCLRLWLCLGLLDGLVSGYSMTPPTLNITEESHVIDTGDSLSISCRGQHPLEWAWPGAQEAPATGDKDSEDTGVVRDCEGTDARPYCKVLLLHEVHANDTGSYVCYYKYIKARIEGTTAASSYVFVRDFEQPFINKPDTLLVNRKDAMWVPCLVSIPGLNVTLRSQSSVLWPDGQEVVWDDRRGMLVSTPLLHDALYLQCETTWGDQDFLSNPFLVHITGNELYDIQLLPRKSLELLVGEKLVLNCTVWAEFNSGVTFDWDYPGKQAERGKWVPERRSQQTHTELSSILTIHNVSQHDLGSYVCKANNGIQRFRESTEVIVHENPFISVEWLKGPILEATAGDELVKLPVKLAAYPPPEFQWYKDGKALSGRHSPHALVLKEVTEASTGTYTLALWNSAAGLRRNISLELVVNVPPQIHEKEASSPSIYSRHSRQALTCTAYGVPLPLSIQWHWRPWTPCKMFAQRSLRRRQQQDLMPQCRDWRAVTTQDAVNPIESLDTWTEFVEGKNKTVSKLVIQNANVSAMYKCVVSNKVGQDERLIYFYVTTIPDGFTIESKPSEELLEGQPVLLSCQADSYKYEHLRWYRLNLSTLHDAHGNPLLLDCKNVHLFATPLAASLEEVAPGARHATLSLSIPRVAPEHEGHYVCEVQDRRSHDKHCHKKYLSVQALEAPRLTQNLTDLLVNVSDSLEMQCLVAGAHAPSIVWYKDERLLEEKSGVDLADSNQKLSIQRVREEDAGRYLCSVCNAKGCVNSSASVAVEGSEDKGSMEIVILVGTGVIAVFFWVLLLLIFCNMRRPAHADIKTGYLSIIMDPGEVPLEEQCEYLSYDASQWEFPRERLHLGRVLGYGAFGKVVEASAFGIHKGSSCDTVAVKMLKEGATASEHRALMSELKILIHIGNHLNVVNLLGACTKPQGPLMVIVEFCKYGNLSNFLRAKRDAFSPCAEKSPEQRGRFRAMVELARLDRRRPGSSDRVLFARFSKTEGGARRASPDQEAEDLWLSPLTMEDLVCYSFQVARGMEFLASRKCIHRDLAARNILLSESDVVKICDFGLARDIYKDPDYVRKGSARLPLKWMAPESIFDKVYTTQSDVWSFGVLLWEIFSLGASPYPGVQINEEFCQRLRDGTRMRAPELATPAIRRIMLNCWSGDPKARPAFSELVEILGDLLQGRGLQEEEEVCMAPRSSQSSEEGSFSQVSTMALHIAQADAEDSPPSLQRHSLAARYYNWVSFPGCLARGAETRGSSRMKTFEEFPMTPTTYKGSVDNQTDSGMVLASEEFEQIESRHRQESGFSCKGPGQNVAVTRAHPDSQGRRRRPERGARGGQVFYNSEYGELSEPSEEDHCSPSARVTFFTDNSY
# UniProt P50406, whole entry, looked up: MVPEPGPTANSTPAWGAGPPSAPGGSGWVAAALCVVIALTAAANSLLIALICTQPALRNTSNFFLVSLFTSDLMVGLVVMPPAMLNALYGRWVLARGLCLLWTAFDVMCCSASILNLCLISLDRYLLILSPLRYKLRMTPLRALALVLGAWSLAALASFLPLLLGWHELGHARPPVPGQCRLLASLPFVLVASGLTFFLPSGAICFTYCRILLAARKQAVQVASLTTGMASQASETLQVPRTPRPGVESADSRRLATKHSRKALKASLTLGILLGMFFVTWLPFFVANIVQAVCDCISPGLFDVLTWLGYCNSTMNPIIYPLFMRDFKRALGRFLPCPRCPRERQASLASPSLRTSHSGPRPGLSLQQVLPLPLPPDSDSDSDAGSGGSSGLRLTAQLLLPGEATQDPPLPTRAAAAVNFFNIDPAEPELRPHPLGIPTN
# UniProt P18825, whole entry, looked up: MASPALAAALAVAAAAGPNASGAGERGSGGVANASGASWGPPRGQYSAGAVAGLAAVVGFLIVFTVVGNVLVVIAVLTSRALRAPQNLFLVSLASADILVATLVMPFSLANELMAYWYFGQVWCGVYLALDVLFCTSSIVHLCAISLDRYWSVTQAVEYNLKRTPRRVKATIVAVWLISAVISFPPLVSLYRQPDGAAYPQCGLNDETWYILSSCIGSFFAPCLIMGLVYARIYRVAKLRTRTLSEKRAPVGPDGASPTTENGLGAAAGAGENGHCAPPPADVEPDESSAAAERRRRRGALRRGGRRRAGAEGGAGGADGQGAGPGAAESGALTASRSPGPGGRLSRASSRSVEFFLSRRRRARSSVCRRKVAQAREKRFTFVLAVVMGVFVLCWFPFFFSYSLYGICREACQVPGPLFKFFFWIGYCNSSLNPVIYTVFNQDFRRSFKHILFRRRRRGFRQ
# UniProt P13945: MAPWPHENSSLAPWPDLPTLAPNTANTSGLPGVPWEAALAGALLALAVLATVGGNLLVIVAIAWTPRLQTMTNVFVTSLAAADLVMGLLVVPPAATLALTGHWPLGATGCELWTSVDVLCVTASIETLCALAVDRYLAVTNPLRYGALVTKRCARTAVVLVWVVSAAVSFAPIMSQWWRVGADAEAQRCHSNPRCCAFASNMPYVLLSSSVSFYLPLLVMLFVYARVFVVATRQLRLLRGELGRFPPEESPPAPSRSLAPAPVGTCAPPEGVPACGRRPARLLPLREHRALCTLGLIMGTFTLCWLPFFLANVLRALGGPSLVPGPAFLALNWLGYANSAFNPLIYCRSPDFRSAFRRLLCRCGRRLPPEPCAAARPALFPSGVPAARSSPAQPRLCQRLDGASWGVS
# UniProt P42574: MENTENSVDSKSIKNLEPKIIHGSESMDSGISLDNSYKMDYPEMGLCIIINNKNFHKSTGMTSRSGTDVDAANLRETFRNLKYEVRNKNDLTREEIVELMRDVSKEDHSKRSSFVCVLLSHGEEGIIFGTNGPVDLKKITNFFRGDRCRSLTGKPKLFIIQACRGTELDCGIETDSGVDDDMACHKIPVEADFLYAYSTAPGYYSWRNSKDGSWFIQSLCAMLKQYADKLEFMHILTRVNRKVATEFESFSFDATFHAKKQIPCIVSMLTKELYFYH
# UniProt P37288, whole entry, looked up: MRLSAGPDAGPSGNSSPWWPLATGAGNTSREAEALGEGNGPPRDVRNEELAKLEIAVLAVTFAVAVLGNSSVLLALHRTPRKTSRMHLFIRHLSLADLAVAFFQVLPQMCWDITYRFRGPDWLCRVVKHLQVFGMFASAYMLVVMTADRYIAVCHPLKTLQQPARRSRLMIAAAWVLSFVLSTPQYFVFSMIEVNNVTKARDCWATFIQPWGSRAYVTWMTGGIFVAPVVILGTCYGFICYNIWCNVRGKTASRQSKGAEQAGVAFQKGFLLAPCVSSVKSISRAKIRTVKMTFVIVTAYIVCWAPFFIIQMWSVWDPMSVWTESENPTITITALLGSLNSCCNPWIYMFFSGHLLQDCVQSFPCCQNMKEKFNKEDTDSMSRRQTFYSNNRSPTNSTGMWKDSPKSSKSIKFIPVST
# UniProt O70526, whole entry, looked up: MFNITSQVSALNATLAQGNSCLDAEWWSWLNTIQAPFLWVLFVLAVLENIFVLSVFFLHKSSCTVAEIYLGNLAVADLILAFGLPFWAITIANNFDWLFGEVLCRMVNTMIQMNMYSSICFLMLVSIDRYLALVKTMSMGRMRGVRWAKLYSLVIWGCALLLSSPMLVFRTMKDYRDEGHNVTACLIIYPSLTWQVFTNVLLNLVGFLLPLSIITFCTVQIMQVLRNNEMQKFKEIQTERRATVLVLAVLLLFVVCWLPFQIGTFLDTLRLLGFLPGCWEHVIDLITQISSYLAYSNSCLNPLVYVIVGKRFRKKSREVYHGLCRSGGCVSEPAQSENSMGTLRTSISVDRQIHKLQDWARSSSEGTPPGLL
# The inconclusive results got no clear call from the source; some entries with a clear call stand among them for comparison. For some assays here: Potencies of inconclusive entries are doubtful fits and often do not repeat. Active and inactive are the calls of the source. How the source made its calls: active means hit-call score of the fitted dose curve at least 0.9, where 1 is the maximum; inconclusive means response in the unintended direction; inactive means score below 0.9.
# Columns and labels:
# [1] = molecular target: chimpanzee Androgen Receptor (AR), AR (gene 747460) (UniProt O97775); experiment: NVS_NR_cAR: NovaScreen (NVS) Nuclear Receptor Binding Assay for chimpanzee Androgen Receptor (AR) (AID 2283346)
# Outline: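 Cell-free radioligand displacement using receptor protein extracted from Sf9/Sf21 cells; bound radioligand measured by scintillation counting 72 hours after chemical dosing. Loss of signal versus DMSO baseline indicates binding; primary screen single-concentration in duplicate at 25 uM, actives followed in concentration series.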
# [2] = molecular target: Estrogen receptor (Homo sapiens) (UniProt P03372); experiment: OT_ERa_GFPERaERE_0120: Odyssey Thera (OT) 2-hour HeLa Transcription Induction Assay for Estrogen Receptor (AID 2283382)
# Outline: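 Cells (human cervical HeLa) receive compound, incubate 2 hours, then are imaged for fluorescent reporter induction. Images are quantified by high content analysis, and activity is fitted as gain of signal against DMSO.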
# [3] = molecular target: human Protein Phosphatase, Mg2+/Mn2+ Dependent 1A (PPM1A), PPM1A (gene 5494) (UniProt P35813); experiment: NVS_ENZ_hPPM1A: NovaScreen (NVS) Enzymatic Assay for human Protein Phosphatase, Mg2+/Mn2+ Dependent 1A (PPM1A) (AID 2283198)
# Outline: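 Primary screen in duplicate at 25 uM, with actives then titrated to a maximum of 50 uM. Recombinant PPM1A dephosphorylation of fluorescent substrate measured at 1 h, with substrate and product separated by mobility shift; inhibition fitted against DMSO.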
# [4] = molecular target: guinea pig Leukotriene D4 Receptor (LTD4), CYSLTR1 (gene 100135514) (UniProt Q2NNR5); experiment: NVS_GPCR_gLTD4: NovaScreen (NVS) G Protein-Coupled Receptor Assay for guinea pig Leukotriene D4 Receptor (LTD4) (AID 2283248)
# Outline: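 Guinea pig lung membrane preparation; bound radioligand measured by filter scintillation after 1 h, loss of signal versus DMSO marking displacement. Compounds tested at 25 uM in duplicate, hits retested to max 50 uM.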
# [5] = molecular target: rat Serotonin, 5-Hydroxytryptamine Receptor (5HT), Non-Selective Binding, Htr1a (gene 24473) (UniProt P19327); experiment: NVS_GPCR_r5HT_NonSelective: NovaScreen (NVS) G Protein-Coupled Receptor Assay for rat Serotonin, 5-Hydroxytryptamine Receptor (5HT), Non-Selective Binding (AID 2283295)
# Outline: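 Rat cortex membrane preparation incubated 1 h with radioligand and test chemical; bound radioactivity counted after filtration. Screening began in duplicate at 25 uM with concentration-series follow-up; fitting relative to DMSO.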
# [6] = Tanguay_ZF_120hpf_SWIM_legacy: (Legacy) Oregon State University Tanguay Lab 120 Hour Post-fertilization zebrafish Assay for Swim Bladder Malformation (AID 2283654);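 further: swim bladder malformation in each larva scored yes or no under brightfield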
# Outline: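 Static waterborne exposure of single dechorionated Tropical 5D zebrafish embryos, 6–120 hpf, 28C, 0.64% DMSO final. Read-out: swim bladder malformation, present/absent, relative to DMSO negative control; trimethyltin chloride 5uM served as positive control.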
# [7] = molecular target: human Vascular Endothelial Growth Factor Receptor 3 (VEGFR3), FLT4 (gene 2324) (UniProt P35916); experiment: NVS_ENZ_hVEGFR3: NovaScreen (NVS) Enzymatic Assay for human Vascular Endothelial Growth Factor Receptor 3 (VEGFR3) (AID 2283229)
# Outline: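 Chemicals first run in duplicate at 25 uM, with actives re-tested in concentration series to a top of 50 uM. Recombinant VEGFR3 activity measured after 1 h via fluorescence with mobility-shift product separation; inhibition fitted relative to DMSO.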
# [8] = molecular target: human Serotonin, 5-Hydroxytryptamine Receptor 6 (5HT6), HTR6 (gene 3362) (UniProt P50406); experiment: NVS_GPCR_h5HT6: NovaScreen (NVS) G Protein-Coupled Receptor Assay for human Serotonin, 5-Hydroxytryptamine Receptor 6 (5HT6) (AID 2283253)
# Outline: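 Filter scintillation counting of radioligand displacement from HEK293-expressed 5HT6, 1 hour post-dose, with loss of signal relative to DMSO. Single 25 uM duplicates first, with concentration series for confirmation.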
# [9] = molecular target: human Neurotensin Receptor (NTS), NTSR1 (gene 4923) (UniProt P30989); experiment: NVS_GPCR_hNTS: NovaScreen (NVS) G Protein-Coupled Receptor Assay for human Neurotensin Receptor (NTS) (AID 2283279)
# Outline: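 Compounds competed with a radiolabelled ligand for binding to CHO-derived human neurotensin receptor; bound signal counted after filtration, 1 h. Screened first at a single concentration of 25 uM in duplicate, then concentration series to 50 uM maximum for actives.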
# [10] = molecular target: rat Adrenergic Receptor, Beta (Adrb), Non-selective Binding, Adrb1 (gene 24925) (UniProt P18090); experiment: NVS_GPCR_rAdrb_NonSelective: NovaScreen (NVS) G Protein-Coupled Receptor Assay for rat Adrenergic Receptor, Beta (Adrb), Non-selective Binding (AID 2283298)
# Outline: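 Rat cortical membranes incubated 1 h with beta-adrenergic radioligand and test chemical; bound ligand measured by filtration and scintillation counting. Screen at 25 uM duplicate, then concentration series with 50 uM maximum; loss of signal versus DMSO.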
# [11] = test system: guinea pig Leukotriene B4 Receptor (LTB4), gene 100379538; experiment: NVS_GPCR_gLTB4: NovaScreen (NVS) G Protein-Coupled Receptor Assay for guinea pig Leukotriene B4 Receptor (LTB4) (AID 2283247)
# Outline: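 Membranes from guinea pig spleen incubated 2 h with radioligand and compound; bound counts measured by filtration and scintillation. Screened first at 25 uM in duplicate, then actives titrated to a 50 uM top concentration relative to DMSO.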
# [12] = molecular target: human Adrenergic, Alpha 2c Receptor (Adra2C), ADRA2C (gene 152) (UniProt P18825); experiment: NVS_GPCR_hAdra2C: NovaScreen (NVS) G Protein-Coupled Receptor Assay for human Adrenergic, Alpha 2c Receptor (Adra2C) (AID 2283259)
# Outline: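 Screened first in duplicate at 25 uM, with actives then run as concentration series. Membranes from Sf9 cells were exposed for 1 h, and displacement of radioligand was counted after filtration, using DMSO as baseline.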
# [13] = molecular target: human Adrenergic, Beta 3 Receptor (Adrb3), ADRB3 (gene 155) (UniProt P13945); experiment: NVS_GPCR_hAdrb3: NovaScreen (NVS) G Protein-Coupled Receptor Assay for human Adrenergic, Beta 3 Receptor (Adrb3) (AID 2283262)
# Outline: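 A cell-free filter binding assay read by scintillation counting, with displacement of a specific radioligand measured after 1 hour. The receptor source was SK-N-MC extracts (cells pretreated with isoproterenol and 8-bromo-cAMP). Compounds were first tested at 25 uM in duplicate and then in concentration series.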
# [14] = test system: DIO3 (gene 1735); experiment: CCTE_GLTED_hDIO3: CCTE's human Deiodinase 3 (DIO3) Inhibition Assay, Great Lakes Toxicology and Ecology Division (GLTED) Lab (AID 2284055);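 further: potency is for inhibition seen as loss of released iodide signal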
# Outline: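 Human type 3 deiodinase, expressed via adenovirus system, was exposed to test chemicals for 3 hours in a cell-free format. Released iodide was then determined spectrophotometrically by Sandell-Kolthoff; plates ran in triplicate.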
# [15] = IUF_NPC5_oligodendrocyte_differentiation_120hr: Leibniz Research Institute for Environmental Medicine (IUF) 120-hour Oligodendrocyte Differentiation Assay (NPC5) (AID 2284304);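 further: primary human fetal neural progenitor spheres plated to migrate and differentiate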
# Outline: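 Oligodendrocyte differentiation scored as O4-positive cells, found by CNN image analysis, as percent of Hoechst-stained nuclei in the migration area. Scoring followed 5 days of exposure of plated hNPC neurospheres differentiating in DMEM/F12 N2 medium at 37C, with compound refreshed at day 3.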
# [16] = molecular target: Caspase-3 (Homo sapiens) (UniProt P42574); experiment: NVS_ENZ_hCASP3: NovaScreen (NVS) Enzymatic Assay for human Caspase 3 (CASP3) (AID 2283139)
# Outline: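 Single-concentration screening at 25 uM in duplicate, with concentration-response follow-up to a 50 uM maximum for chemicals passing the threshold. Caspase-3 (human, E. coli-expressed) activity was read as substrate fluorescence after 1 h, with loss of signal relative to DMSO.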
# [17] = molecular target: human Matrix Metalloproteinase-2 (MMP2), MMP2 (gene 4313) (UniProt P08253); experiment: NVS_ENZ_hMMP2: NovaScreen (NVS) Enzymatic Assay for human Matrix Metalloproteinase-2 (MMP2) (AID 2283184)
# Outline: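 Compounds first screened in duplicate at a single 25 uM, with actives followed up in concentration series. Recombinant human MMP2 cleaves a fluorogenic substrate; fluorescence taken at 1 h, inhibition fitted relative to DMSO.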
# [18] = molecular target: human Vasopressin 1A Receptor (V1A), AVPR1A (gene 552) (UniProt P37288); experiment: NVS_GPCR_hV1A: NovaScreen (NVS) G Protein-Coupled Receptor Assay for human Vasopressin 1A Receptor (V1A) (AID 2283284)
# Outline: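 Single-concentration duplicate screen at 25 uM, with concentration-response follow-up (top 50 uM) for actives. The assay measured displacement of a radioligand from human platelet-derived receptor after 1.5 h, detected by filtration and scintillation counting.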
# [19] = molecular target: guinea pig Bradykinin Receptor B2 (BK2), BDKRB2 (gene 100135486) (UniProt O70526); experiment: NVS_GPCR_gBK2: NovaScreen (NVS) G Protein-Coupled Receptor Assay for guinea pig Bradykinin Receptor B2 (BK2) (AID 2283292)
# Outline: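 Guinea pig ileum membrane preparation incubated 1 h with radioligand and test chemical; bound counts measured after filtration. Primary duplicate screening at 25 uM, then singleton concentration series with a 50 uM top dose; DMSO as baseline.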
# [20] = read-out: ABC Transporter (ABCB1), ABCB1 (gene 5243); experiment: CLD_ABCB1_6hr: CellzDirect (CLD) Gene Expression Assay for ABC Transporter (ABCB1) at 6 hours (AID 2283659)
# Outline: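 ABCB1 transcript measured by quantitative nuclease protection assay, chemiluminescent read-out, 6 h after dosing human hepatocyte cultures (0.2% DMSO vehicle, daily redosing). Activity fitted as increase over DMSO baseline; cytotoxicity flagged by phase-contrast morphology.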
smiles,measurement,setting,value
C[Si]1(C)O[Si](C)(C)O[Si](C)(C)O[Si](C)(C)O[Si](C)(C)O1,AC50,[1],inconclusive: 25 µM
same,outcome,[2],inactive
COC(=O)CCCCC(=O)OC,outcome,[3],inactive
same,AC50,[4],inconclusive: 25 µM
same,AC50,[5],inconclusive: 6.6 µM
same,outcome,[6],inactive
NCCO,outcome,[7],inactive
same,outcome,[8],inactive
same,AC50,[9],active: 37.9 µM
same,AC50,[10],inconclusive: 25 µM
CN1C(=O)N(c2ccccc2Br)Cc2cnc(Nc3ccc4c(c3)OCC(CO)O4)nc21 (stereo not given),AC50,[11],inconclusive: 0.142 µM
same,AC50,[12],inconclusive: 0.554 µM
same,AC50,[13],inconclusive: 6.32 µM
same,AC50,[14],inconclusive: 0.0405 µM
CCCCNS(=O)(=O)c1ccccc1,outcome,[15],inactive
COC(=O)c1cccc(C)c1S(=O)(=O)NC(=O)Nc1nc(OCC(F)(F)F)nc(N(C)C)n1,outcome,[16],inactive
same,AC50,[17],inconclusive: 0.22 µM
same,AC50,[18],active: 1.32 µM
same,AC50,[19],inconclusive: 25 µM
same,AC50,[20],inconclusive: 20 µM

# At a glance, some entries already given.
smiles,measurement,setting,value
CN1C(=O)N(c2ccccc2Br)Cc2cnc(Nc3ccc4c(c3)OCC(CO)O4)nc21 (stereo not given),AC50,[13],inconclusive: 6.32 µM
same,AC50,[14],inconclusive: 0.0405 µM
